Experimental data from PubChem BioAssay AID1671190 (National Center for Advancing Translational Sciences (NCATS), 2021).
About 6,100 (1.1%) of roughly 580,000 compounds were called active. The inconclusive results got no clear call from the source; some entries with a clear call stand among them for comparison. The call rests on the fitted dose curve; in most records, active means well fitted inhibition curve with a large enough effect; inconclusive means small, poorly fitted or top-dose-only effect, or another doubt; inactive means no such curve, though single readings can be large or run the other way. Potencies beside an inconclusive call are fits to weak or partial responses and may not hold up.

Chains of the proteins cited; added tags and fusions are not shown.
UniProt P18054, whole entry, looked up: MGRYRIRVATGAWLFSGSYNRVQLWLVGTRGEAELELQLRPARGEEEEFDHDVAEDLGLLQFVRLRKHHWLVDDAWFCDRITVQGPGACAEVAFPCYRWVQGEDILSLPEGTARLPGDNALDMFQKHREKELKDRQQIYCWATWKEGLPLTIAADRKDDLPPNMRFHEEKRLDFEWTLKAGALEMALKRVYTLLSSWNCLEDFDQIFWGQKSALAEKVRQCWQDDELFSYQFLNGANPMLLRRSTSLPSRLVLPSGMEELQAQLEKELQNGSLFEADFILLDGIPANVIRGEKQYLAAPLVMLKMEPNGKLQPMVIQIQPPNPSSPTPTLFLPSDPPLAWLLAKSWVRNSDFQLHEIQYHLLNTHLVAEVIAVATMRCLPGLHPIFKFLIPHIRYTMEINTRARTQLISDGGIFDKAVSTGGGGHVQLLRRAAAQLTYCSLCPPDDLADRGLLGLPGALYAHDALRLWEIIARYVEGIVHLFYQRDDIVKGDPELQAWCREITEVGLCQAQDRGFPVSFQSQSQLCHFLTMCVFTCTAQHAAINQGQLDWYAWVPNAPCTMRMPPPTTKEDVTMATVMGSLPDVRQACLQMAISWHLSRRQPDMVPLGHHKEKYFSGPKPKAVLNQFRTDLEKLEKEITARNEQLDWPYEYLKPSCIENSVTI

target: Polyunsaturated fatty acid lipoxygenase ALOX12 (Homo sapiens) (UniProt P18054); assay: Primary qHTS assay for inhibitors of human arachidonate 12S-lipoxygenase (ALOX12): Round 2; details: purified 12hLO, xylenol orange hydroperoxide absorbance; activity change, negative = inhibition: at 108 µM (top of the series) unless noted
Outline: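 Hydroperoxide product was detected by ferrous iron/xylenol orange as the 573 to 405 nm absorbance ratio. Arachidonic acid at 40 uM (final) was turned over for 30 min at room temperature by 150 nM human 12hLO, pH 7.0 Hepes buffer, after 15 min compound preincubation.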
On the % scale 0 is the no-effect control and ±100 the full control effect; potency means the concentration at half of the fitted maximal effect.

| SMILES | Potency | activity change, negative = inhibition |
| --- | --- | --- |
| Cc1ccc(OCc2nc(C3CN(C(=O)CCc4nc5ccccc5s4)C3)no2)cc1 | inactive |  |
| NS(=O)(=O)c1ccc(N=Nc2c(=O)[nH]n3c(=O)c4c([nH]c23)CCCC4)cc1 | inconclusive: 141 µM [inhibitor, partial curve, poor fit] |  |
| COc1cccc(CN2CCOC3CCN(Cc4cccc(Cl)c4)CC3C2=O)c1 (stereo not given) | inconclusive: 35.5 µM [inhibitor, partial curve, poor fit] |  |
| CCOC(=O)c1ccc(NC(=O)c2cc(N3CCCCS3(=O)=O)ccc2Cl)cc1 | inactive |  |
| COC(=O)c1ccc(NC(=O)c2c(NCc3cccc(F)c3)sc3c2CCCC3)cc1 | inconclusive: 44.7 µM [inhibitor, partial curve, poor fit] |  |
| Cc1ccc(-c2onc3ccc(-c4cc(C(=O)O)c5cc(Br)ccc5n4)cc23)cc1 | active: 7.94 µM |  |
| C[n+]1cccc(NC(=O)c2ccccc2)c1 | inconclusive: 112 µM [inhibitor, single point] |  |
| CN1CCC(NC(=O)C(C)(C)Oc2nn(Cc3cccc(Cl)c3)c3ccccc23)CC1 | inconclusive: 22.4 µM [inhibitor, full curve] |  |
| CC(=O)Nc1ccc(NS(=O)(=O)c2ccc3c(c2)oc(=O)n3C)cc1 | active: 8.91 µM |  |
| O=C(NC1CC1)C1=C[C@@H](c2ccc3c(c2)OCO3)C[C@@H](OCc2ccc(CO)cc2)O1 | inconclusive: 79.4 µM [inhibitor, single point] |  |
| NC(=O)C(c1ccccc1)N(Cc1cccs1)C1CC1 (stereo not given) | inactive |  |
| CCOC(=O)C(=O)C1=CN(Cc2ccccc2)C=C(C#N)C1 | inconclusive: 89.1 µM [inhibitor, partial curve, poor fit] |  |
| C=C[C@@H]1c2cccc(C)c2N(S(=O)(=O)c2ccc(C)cc2)[C@H](c2ccccc2)C1(C#N)S(=O)(=O)c1ccccc1 (stereo not given in full) | inconclusive: 7.08 µM [inhibitor, full curve, poor fit] |  |
| COc1cc(OC)cc(-c2c(-c3cccs3)c3cc(-c4ccc(CN5CCOCC5)cc4)ccc3n2C)c1 | inactive |  |
| COc1ccc2cc1Nc1ccc(cc1)C[C@H](NCc1ccc(C)o1)C(=O)N(C)[C@@H](C(=O)NCc1ccccc1)C2 | inactive |  |
| Cc1cccc(C(=O)N[C@H](C(=O)OCC(=O)NC2CCS(=O)(=O)C2)C(C)C)c1 (stereo not given in full) | inconclusive: 12.6 µM [inhibitor, full curve, poor fit] |  |
| CC(=O)c1ccc(NC(=O)c2cccc(NC(=O)c3ccccc3)c2)cc1 | inactive |  |
| O=C(Nc1ccc(Cl)c([N+](=O)[O-])c1)C(NCCCO)c1ccccc1 (stereo not given) | inactive |  |
| Cc1cc(C)cc(NC(=O)N2c3ccccc3NC(=O)CC2C)c1 (stereo not given) | inconclusive: 100 µM [inhibitor, single point] |  |
| O=C(Nc1nc2ccccc2[nH]1)c1cccc([N+](=O)[O-])c1 | inactive |  |
| Cc1cccc(N2CCN(S(=O)(=O)c3cc(C(=O)Nc4ccc(Oc5ccccc5)cc4)ccc3F)CC2C)c1 (stereo not given) | inconclusive: 158 µM [inhibitor, partial curve, poor fit] |  |
| COCc1ccc2c(c1)c(OC(C)(C)C(=O)NC1CCC(O)CC1)nn2CCC(C)C (stereo not given) | inactive |  |

Reformatted tab-delimited: part of the list above
SMILES	Potency	activity change, negative = inhibition
C=C[C@@H]1c2cccc(C)c2N(S(=O)(=O)c2ccc(C)cc2)[C@H](c2ccccc2)C1(C#N)S(=O)(=O)c1ccccc1 (stereo not given in full)	inconclusive: 7.08 µM [inhibitor, full curve, poor fit]	
COc1cc(OC)cc(-c2c(-c3cccs3)c3cc(-c4ccc(CN5CCOCC5)cc4)ccc3n2C)c1	inactive	

(continued)

| SMILES | Potency | activity change, negative = inhibition |
| --- | --- | --- |
| C=CCn1c(-c2cccn(Cc3ccc(Cl)cc3Cl)c2=O)n[nH]c1=S | active: 44.7 µM |  |
| Cn1nc(C(=O)Nc2cccc(Cl)c2)c2c1-c1ccsc1CC2 | inconclusive: 56.2 µM [inhibitor, partial curve, poor fit] |  |
| Oc1cc2c(cc1CN1CCc3ccccc3C1)OCO2 | inconclusive: 8.91 µM [inhibitor, partial curve] |  |
| CCCCN(C)CCNC(=O)c1nn(-c2ccc(OC)c(Cl)c2)c(=O)c2c1c1ccccc1n2C | inactive |  |
| Cc1ccc(-n2c(O)c(C=Nc3ccccc3-c3n[nH]c(=S)[nH]c3=O)c3ccccc3c2=O)cc1C | inconclusive: 3.98 µM [inhibitor, full curve, poor fit] |  |
| CC(C)CN1CCC(=O)N([C@H](CSc2ccccc2)Cc2ccccc2)CC1 | inactive |  |
| CC(=O)c1cccc(NC(=O)O[C@@H]2CO[C@H]3[C@@H]2OC[C@@H]3NC(=S)NC2CCCCC2)c1 | inconclusive: 50.1 µM [inhibitor, partial curve, poor fit] |  |
| CCn1cc([N+](=O)[O-])c(C(=O)N2N=C(c3ccc(Cl)c(Cl)c3)CC2c2ccccc2O)n1 (stereo not given) | inconclusive: 39.8 µM [inhibitor, partial curve, poor fit] |  |
| Cc1cc(OCCN2CCCCCC2)ccc1[N+](=O)[O-] | inconclusive: 5.62 µM [inhibitor, full curve, poor fit] |  |
| CN(Cc1ccc(C(C)(C)C)cc1)C(=O)CNC(N)=O | inactive |  |
| C=CCCC1CN(Cc2ccc(OC)cc2)S(=O)(=O)c2c(Oc3ccc(F)cc3OC)cccc2O1 (stereo not given) | inactive |  |
| COc1ccc(OC)c(C(c2nnnn2CC2CCCO2)N2CCN(C)CC2)c1 (stereo not given) | inconclusive: 50.1 µM [inhibitor, single point] |  |
| CC(/C=C/c1ccc(N(C)C)cc1)=N/N=C1/NC(=O)CC(C(=O)Nc2ccc(Cl)cc2)S1 (stereo not given) | inconclusive: 70.8 µM [inhibitor, partial curve, poor fit] |  |
| COC(=O)c1sc(=S)n(-c2ccc(C(C)C)cc2)c1N | inconclusive: 39.8 µM [inhibitor, partial curve, poor fit] |  |
| OC(CNCC1CCCO1)Cn1c2ccc(Br)cc2c2cc(Br)ccc21 (stereo not given) | inconclusive: 141 µM [inhibitor, single point] |  |
| O=C(OCC(=O)N1CCCCC1)c1c[nH]c(=O)[nH]c1=O | inconclusive: 39.8 µM [inhibitor, partial curve, poor fit] |  |
| C=C(C)Cn1c(SC/C=C/C)nc2c1c(=O)n(C)c(=O)n2C | inconclusive: 50.1 µM [inhibitor, partial curve, poor fit] |  |
| CCOC(=O)c1oc2cc(C)cc(C)c2c1C | inactive |  |
| O=C(Cc1ccccc1)Nc1ccccc1N1CCCC1 | inactive |  |
| COC(=O)C1=C(CS(=O)(=O)c2ccc(C)cc2C)NC(=O)NC1c1ccc(C)cc1 (stereo not given) | inconclusive: 44.7 µM [inhibitor, partial curve, poor fit] |  |
| c1cc(-c2cc(-c3ccncc3)c3cncn3c2)c2cc[nH]c2c1 |  | inconclusive: -33.6% [inhibitor] [at 176 µM] |
| Cc1cc(Br)ccc1SCC(=O)NCC(c1ccco1)N1CCCCC1 (stereo not given) | inconclusive: 44.7 µM [inhibitor, partial curve, poor fit] |  |

Some of the entries so far, field by field:
CC(=O)c1cccc(NC(=O)O[C@@H]2CO[C@H]3[C@@H]2OC[C@@H]3NC(=S)NC2CCCCC2)c1
  Potency: inconclusive: 50.1 µM [inhibitor, partial curve, poor fit]
CCn1cc([N+](=O)[O-])c(C(=O)N2N=C(c3ccc(Cl)c(Cl)c3)CC2c2ccccc2O)n1 (stereo not given)
  Potency: inconclusive: 39.8 µM [inhibitor, partial curve, poor fit]
Cc1cc(OCCN2CCCCCC2)ccc1[N+](=O)[O-]
  Potency: inconclusive: 5.62 µM [inhibitor, full curve, poor fit]
CN(Cc1ccc(C(C)(C)C)cc1)C(=O)CNC(N)=O
  Potency: inactive

(cont.)

| SMILES | Potency | activity change, negative = inhibition |
| --- | --- | --- |
| CCO[C@@H]1OC(C(=O)NCc2ccccc2)=C[C@H](C2CCCCC2)[C@H]1CCCO | inconclusive: 70.8 µM [inhibitor, partial curve, poor fit] |  |
| Brc1ccccc1OCCOc1cccc2cccnc12 | inactive |  |
| CCCS(=O)(=O)N1CCC2(CC1)CN(c1ccccc1)C2=O | inactive |  |
| O=C(Cc1ccc(N(Cc2ccc(F)cc2)C(=O)c2ccco2)cc1)NCc1ccc(F)cc1 | active: 31.6 µM |  |
| COc1ccc(C2CC(c3ccc4ccccc4c3OC(C)=O)=NN2C(=O)/C=C/c2ccccc2)cc1 (stereo not given) | inconclusive: 39.8 µM [inhibitor, partial curve, poor fit] |  |
| O=C(Nc1cccc2ccccc12)O[C@@H]1CO[C@H]2[C@@H]1OC[C@@H]2NS(=O)(=O)c1ccc2ccccc2c1 | inconclusive: 70.8 µM [inhibitor, partial curve, poor fit] |  |
| CCCC1=[N+](CC(=O)c2ccccc2)CCn2cccc21 | inactive |  |
| COC(=O)c1ccc(COc2ccc(/C=C/c3nc4c(ccc5ccccc54)s3)cc2)cc1 | inconclusive: 31.6 µM [inhibitor, partial curve, poor fit] |  |
| O=C1c2ccccc2NC(c2ccc(Cl)cc2)N1c1ccc(O)cc1 (stereo not given) | inactive |  |
| O=C(Nc1ccccc1F)c1ccc(Cn2cc(Br)cn2)cc1 | inconclusive: 50.1 µM [inhibitor, partial curve, poor fit] |  |
| COc1cccc(CN2CCC3(CC2)CC(c2cccnc2)=NO3)c1 | inconclusive: 50.1 µM [inhibitor, partial curve, poor fit] |  |
| O=C(Nc1cccc(C(=O)Nc2ccc(Cl)cn2)c1)c1ccccc1 | inactive |  |
| CC(C(=O)OCC(=O)Nc1ccc2c(c1)OCO2)N1C(=O)c2ccccc2C1=O (stereo not given) | inconclusive: 39.8 µM [inhibitor, partial curve, poor fit] |  |
| O=C(CSc1nnc2ccccn12)Nc1cccc(-c2nc3ccccc3s2)c1 | inconclusive: 5.62 µM [inhibitor, full curve, poor fit] |  |
| CCOc1ccccc1NC(=O)Cn1nnc(C(=O)NCc2cccs2)c1N | inconclusive: 126 µM [inhibitor, single point] |  |
| CN(C)c1nc(-c2cccc(NS(C)(=O)=O)c2)nc2ccccc12 | inconclusive: 20 µM [inhibitor, partial curve, poor fit] |  |
| CCCc1noc(-c2ccn3c(CNC(=O)c4ccc(F)cc4Cl)nnc3c2)n1 | inconclusive: 44.7 µM [inhibitor, partial curve, poor fit] |  |
| COCC1CN(C2CCC2)CC12CCN(C(=O)c1ccn[nH]1)CC2 (stereo not given) | inactive |  |
| CN(C)/C=C/C(=O)c1cnc(-c2cccc(Cl)c2)s1 | active: 31.6 µM |  |
| CC(C)(N)C(=O)N1CCCC(N2CCN(Cc3ccc4c(c3)OCO4)CC2)C1 (stereo not given) | inconclusive: 3.98 µM [inhibitor, full curve] |  |
| COC(=O)C(C)N1C(=O)S/C(=C/c2ccc(C)o2)C1=O (stereo not given) | inconclusive: 5.62 µM [inhibitor, full curve] |  |
